Measured data: PubChem BioAssay AID1259254 (NCATS, 2017)

Aim: 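Genome-wide screen for genes that prevent DNA re-replication in cancer cells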 (primary screen)
Cell system: human HCT116 colorectal cancer cells
Reagents: single siRNA against human genes
Time to read-out: 3 days
Detection: 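Imaged Hoechst DNA stain sorts each cell into a cycle phase by DNA amount; per plate, G2 fraction set to 0% for non-targeting and 100% for GMNN siRNA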
Reading the numbers: G2 robust z-score: higher = more G2 cells, more excess DNA replication
Active means: 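An siRNA counts as active if its G2 robust z-score lies at least 5 MADs above the screen median; here such calls match roughly 38% of GMNN control or more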
The whole screen tested about 59,000 reagents; shown is a part drawn at random. Over the whole deposit, about 1,550 (2.6%) got an active call. 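G2 share is only a proxy for re-replication; each gene was hit by three separate siRNAs, and active genes were retested.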 The numbers tell different reagents against one gene apart. Not all columns of the deposit are shown. No sequences are given here. Not given: the amount of reagent.

{"target":"ZNF735 (zinc finger protein 735)","reagent no.":1,"G2 robust z-score":-0.993,"activity call":"inactive"}
{"target":"ZNF735 (zinc finger protein 735)","reagent no.":2,"G2 robust z-score":3.68,"activity call":"inactive"}
{"target":"ZNF735 (zinc finger protein 735)","reagent no.":3,"G2 robust z-score":-0.0999,"activity call":"inactive"}
{"target":"ZNF735 (zinc finger protein 735)","reagent no.":4,"G2 robust z-score":-0.968,"activity call":"inactive"}
{"target":"ZNF735 (zinc finger protein 735)","reagent no.":5,"G2 robust z-score":-0.95,"activity call":"inactive"}
{"target":"ZNF735 (zinc finger protein 735)","reagent no.":6,"G2 robust z-score":-1.05,"activity call":"inactive"}
{"target":"ARID1B (AT-rich interaction domain 1B)","reagent no.":1,"G2 robust z-score":-0.331,"activity call":"inactive"}
{"target":"ARID1B (AT-rich interaction domain 1B)","reagent no.":2,"G2 robust z-score":-1.19,"activity call":"inactive"}
{"target":"ARID1B (AT-rich interaction domain 1B)","reagent no.":3,"G2 robust z-score":-1.09,"activity call":"inactive"}

Ordered by “G2 robust z-score” (descending): 3 of the entries above
{"target":"ZNF735 (zinc finger protein 735)","reagent no.":3,"G2 robust z-score":-0.0999,"activity call":"inactive"}
{"target":"ZNF735 (zinc finger protein 735)","reagent no.":5,"G2 robust z-score":-0.95,"activity call":"inactive"}
{"target":"ZNF735 (zinc finger protein 735)","reagent no.":4,"G2 robust z-score":-0.968,"activity call":"inactive"}

Continued.
{"target":"CCDC6 (coiled-coil domain containing 6)","reagent no.":1,"G2 robust z-score":-0.0111,"activity call":"inactive"}
{"target":"CCDC6 (coiled-coil domain containing 6)","reagent no.":2,"G2 robust z-score":0.0687,"activity call":"inactive"}
{"target":"CCDC6 (coiled-coil domain containing 6)","reagent no.":3,"G2 robust z-score":0.876,"activity call":"inactive"}
{"target":"COG7 (component of oligomeric golgi complex 7)","reagent no.":1,"G2 robust z-score":-0.0584,"activity call":"inactive"}
{"target":"COG7 (component of oligomeric golgi complex 7)","reagent no.":2,"G2 robust z-score":-0.369,"activity call":"inactive"}
{"target":"COG7 (component of oligomeric golgi complex 7)","reagent no.":3,"G2 robust z-score":0.0182,"activity call":"inactive"}
{"target":"GAPVD1 (GTPase activating protein and VPS9 domains 1)","reagent no.":1,"G2 robust z-score":2.9,"activity call":"inactive"}
{"target":"GAPVD1 (GTPase activating protein and VPS9 domains 1)","reagent no.":2,"G2 robust z-score":-0.751,"activity call":"inactive"}
{"target":"GAPVD1 (GTPase activating protein and VPS9 domains 1)","reagent no.":3,"G2 robust z-score":1.56,"activity call":"inactive"}
{"target":"DCN (decorin)","reagent no.":1,"G2 robust z-score":-0.486,"activity call":"inactive"}
{"target":"DCN (decorin)","reagent no.":2,"G2 robust z-score":2.56,"activity call":"inactive"}
{"target":"DCN (decorin)","reagent no.":3,"G2 robust z-score":2.47,"activity call":"inactive"}
{"target":"DPRX (divergent-paired related homeobox)","reagent no.":1,"G2 robust z-score":0.789,"activity call":"inactive"}
{"target":"DPRX (divergent-paired related homeobox)","reagent no.":2,"G2 robust z-score":1.15,"activity call":"inactive"}
{"target":"DPRX (divergent-paired related homeobox)","reagent no.":3,"G2 robust z-score":2.46,"activity call":"inactive"}
